Measured values as given in PMC7822176, “Pursuing the Complexity of Alzheimer’s Disease: Discovery of Fluoren-9-Amines as Selective Butyrylcholinesterase Inhibitors and N-Methyl-D-Aspartate Receptor Antagonists” (Biomolecules, 2020).

Assays:
[1] = in vitro; conditions: human
Description: (§1) The D3 assay evaluates the ability of compounds to diffuse from the donor compartment through the D3/hCMEC cell membrane into the acceptor compartment. The D3 cells were seeded on a PET membrane (area 1.12 cm^2) with 3-µm pores of the 12-well plates with 12-mm inserts. […] The donor solution (750 µL) was added to the donor compartment (insert), and the same volume of Opti-MEM was added into the acceptor. The concentration of the drug in both compartments was measured by UV-VIS spectrophotometry in 5, 15, 30, and 60 min of incubation in triplicates. The apparent permeability coefficient (Papp) was calculated from the concentration ratios. Tightness of the D3 monolayer was conducted by the fluorescein isothiocyanate (FITC) test after each experiment. […] (1) Papp= dC/dt × Vr/A × C0 • A: area of the well/cell monolayer, • dC/dt: amount in the receiver compartment in given time, • Vr: volume of the receiver compartment, and • C0: the initial concentration of tested compounds.

[2] = system: hCMEC/D3 cell monolayer; test: in vitro
Description: as §1

For `NS(=O)(=O)c1cc(C(=O)O)c(NCc2ccco2)cc1Cl` [Furosemide], the Papp [1] was 13.9 ± 0.92 ×10⁻⁶ cm/s and the “CNS (+/−)” value [2] was “CNS −”.
